Experimental data published in PubChem BioAssay AID488837 (National Center for Advancing Translational Sciences (NCATS), 2010).
Among all 330,000 compounds or so, about 20 (0.006%) were called active. Inconclusive means that the source gave no clear call. Such entries were picked first, then a sample of the others. Calls come from the whole dose curve; as a rule, active = well fitted inhibition curve with a large enough effect; inconclusive = small, poorly fitted or top-dose-only effect, or effect the other way; inactive = flat fitted curve, though single readings scatter. Potencies of inconclusive entries are doubtful fits and often do not repeat.

The chains behind the UniProt entries cited, without tags or fusion partners. Where a name states a change or a piece, a line headed by the entry shows the natural chain unless it says otherwise.
UniProt O00167: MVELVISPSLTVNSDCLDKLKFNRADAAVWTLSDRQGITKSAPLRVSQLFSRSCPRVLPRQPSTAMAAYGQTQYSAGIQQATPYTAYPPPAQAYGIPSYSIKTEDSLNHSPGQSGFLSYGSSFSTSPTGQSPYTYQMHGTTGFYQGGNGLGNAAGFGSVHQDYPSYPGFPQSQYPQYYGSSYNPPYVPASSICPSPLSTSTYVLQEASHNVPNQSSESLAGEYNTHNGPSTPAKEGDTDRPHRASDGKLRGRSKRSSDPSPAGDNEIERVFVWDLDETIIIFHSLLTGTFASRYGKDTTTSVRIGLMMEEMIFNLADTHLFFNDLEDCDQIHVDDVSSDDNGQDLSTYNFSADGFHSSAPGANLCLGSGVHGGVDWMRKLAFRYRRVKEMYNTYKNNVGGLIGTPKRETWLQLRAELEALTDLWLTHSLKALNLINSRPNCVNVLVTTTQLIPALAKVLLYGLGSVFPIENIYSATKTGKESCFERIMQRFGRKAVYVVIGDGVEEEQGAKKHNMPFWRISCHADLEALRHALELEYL

Each compound was assayed against Protein phosphatase EYA2 (Homo sapiens) (UniProt O00167) (assay: qHTS Assay for Inhibitors of the Phosphatase Activity of Eya2). Conditions: recombinant Eya2, OMFP fluorescence dephosphorylation (OMFP is methylfluorescein phosphate); activity, negative = inhibition: at 76.9 µM (top of the series) unless noted.
How it was run: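 Eya2 (0.2 uM) preincubated 10 min at ambient with compound, then OMFP substrate added at 50 uM; 10 min reaction in 50 mM HEPES pH 7.5, 50 mM NaCl, 5 uM MgCl2, 0.05% BSA, 1 mM DTT. Fluorescence read at Ex 485/Em 525 nm.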
% is set by controls: 0 for no effect and ±100 for the full control effect; potency is the fitted concentration of half-maximal effect.

Compound | activity, negative = inhibition | Potency
O=C(NN1C(=O)/C(=C/c2ccc(O)c(O)c2)SC1=S)c1ccccc1 | inconclusive: 30.1% [activator] | 
Cc1cc(C(=O)Nc2ccc(N3CCCCC3)cc2)no1 |  | inconclusive: 14.1 µM [inhibitor, partial curve, poor fit]
C/C(=C\C=C\c1ccccc1)C(=O)c1c(C)cc(C)[nH]c1=O |  | inconclusive: 35.5 µM [inhibitor, single point]
Cn1ccnc1CC(O)(c1ccccc1)c1ccccc1 |  | inconclusive: 25.1 µM [inhibitor, single point]
COc1ccc(-c2nn(-c3ccccc3)cc2C(=O)NC(=S)N2CCOCC2)cc1OC |  | inactive
CN1CCN(c2ccc(CNS(=O)(=O)Cc3cccc(C(F)(F)F)c3)cc2)CC1 |  | inconclusive: 100 µM [inhibitor, single point]
O=C(CCl)N1CCN(S(=O)(=O)c2ccc3c(c2)CCC3)CC1 |  | inactive
CCn1cc(/C=N\NC(=O)Cc2ccc([N+](=O)[O-])cc2)c(C)n1 |  | inactive
O=C(/C=C/c1ccccc1)N(Cc1cccc(Cl)c1)C1CCS(=O)(=O)C1 (configuration not stated) |  | inconclusive: 100 µM [inhibitor, single point]
Cc1ccc(C(=O)O/N=C(\N)c2ccc(C(F)(F)F)cn2)cc1 |  | inconclusive: 112 µM [inhibitor, single point]
C/C(=N/NC(=O)c1ccncc1)c1cc2ccc(O)cc2oc1=O | inconclusive: 56.2% [activator] | 
COc1ccc(CNc2ncnc3c2[nH]c2cc(OC)c(OC)cc23)cc1 |  | inactive
Cc1[nH]ncc1-c1nc2ccccc2[nH]1 |  | inconclusive: 25.1 µM [inhibitor, single point]
O=C(CCCOc1ccccc1)Nc1cc(S(=O)(=O)N2CCOCC2)ccc1N1CCOCC1 |  | inconclusive: 224 µM [inhibitor, single point]
Cc1ccc(C(=O)OCc2nc3ccsc3c(=O)[nH]2)o1 |  | inactive
CCOc1cc(/C=C\c2nc(O)c([N+](=O)[O-])c(=O)[nH]2)ccc1OC(C)C |  | inconclusive: 100 µM [inhibitor, single point]
CCOC(=O)C1CCCN(C2=NC(=O)/C(=C/c3ccc(O)c(OC)c3)S2)C1 (configuration not stated) |  | inconclusive: 89.1 µM [inhibitor, single point]
CCc1nnc(NC(=O)CCC(=O)N2CCN(c3ccccn3)CC2)s1 |  | inactive
CN1/C(=C\C=C(/C#N)C(=O)Nc2ccccc2F)C(C)(C)c2ccccc21 |  | inactive
COc1cccc(NC(=O)CN(C)C(=O)CNC(=O)c2ccc(Oc3ccccc3)cc2)c1 |  | inconclusive: 15.8 µM [inhibitor, single point]
Clc1ccc(SCCCCN2CCNCC2)cc1 |  | inactive
Nc1nc2n(n1)C(=O)CC(c1ccccc1[N+](=O)[O-])N2 (configuration not stated) |  | inconclusive: 25.1 µM [inhibitor, single point]
CCN(CC)C(=O)Cn1cc(S(=O)(=O)CC(=O)NC2CCCCC2)c2ccccc21 |  | inconclusive: 22.4 µM [inhibitor, single point]
COc1ccc2[nH]c(=O)c(CN(C(=O)c3cccnc3)c3cc(C)ccc3C)cc2c1 |  | inconclusive: 126 µM [inhibitor, single point]

Compound | activity, negative = inhibition | Potency
Cc1ccc(S(=O)(=O)N2CCOCC2)cc1C(=O)NC(=S)N1CC(C)OC(C)C1 (configuration not stated) |  | inconclusive: 89.1 µM [inhibitor, single point]
Cc1cc(S(=O)(=O)Nc2ccc(C(=O)NCC(c3ccco3)N(C)C)cc2)ccc1F (configuration not stated) |  | inactive
Cc1cc(OC(C)C(=O)NC(Cc2c[nH]c3ccc(O)cc23)C(=O)O)c2c(C)c(C)c(=O)oc2c1 (configuration not stated) |  | inconclusive: 100 µM [inhibitor, single point]
CC(=O)Nc1ccc(/C=N/NC(=O)c2cc(-c3ccco3)nc3ccccc23)cc1 |  | inconclusive: 100 µM [inhibitor, single point]
CC(C)c1ccc(NC2CCCN(C(=O)c3ccc4nccnc4c3)C2)cc1 (configuration not stated) |  | inconclusive: 100 µM [inhibitor, single point]
COC(=O)C(NNc1ccc(F)cc1)(NC(=O)c1ccccc1)C(F)(F)F (configuration not stated) |  | inactive
O=[N+]([O-])c1ccc(N/N=C/c2ccc[nH]2)cc1 |  | inactive
CCn1c(=O)c2cc(C(=O)NCCCOC)sc2c2ccccc21 |  | inactive
CCOC(=O)C1=C(C)N=c2s/c(=C/c3ccc(OCC(=O)O)cc3)c(=O)n2C1c1cc(OC)c(OC)c(OC)c1 (configuration not stated) |  | inconclusive: 126 µM [activator, partial curve]
O=C(c1cc(-c2ccc(F)cc2)on1)N1CCOCC1 |  | inconclusive: 22.4 µM [inhibitor, single point]
O=C(O)c1ccc(N=Nc2c(-c3ccccc3)[nH]oc2=O)cc1 |  | inconclusive: 20 µM [inhibitor, single point]
Cc1cc(NC(=O)C(C)SCC(=O)NCc2ccc(F)cc2)no1 (configuration not stated) |  | inconclusive: 1120 µM [inhibitor, partial curve, poor fit]
O=C(O)CCCN1C(=O)c2ccc(Oc3cccc([N+](=O)[O-])c3)cc2C1=O |  | inconclusive: 112 µM [inhibitor, single point]
CCn1c(C)cc(/C=C2/SC(=O)N(C(C)C(=O)OC)C2=O)c1C (configuration not stated) |  | inactive
CNc1c2c(nn1C)CCCC2 |  | inconclusive: 126 µM [inhibitor, partial curve, poor fit]
CC(C)=CCc1c2c(c3occ(-c4ccc(O)cc4)c(=O)c3c1O)C=CC(C)(C)O2 |  | inconclusive: 100 µM [inhibitor, single point]
CCOC(=O)C1=C(C)OC(N)=C(C#N)C1c1c(C)nn(-c2ccccc2)c1Cl (configuration not stated) |  | inactive
O=C(OCC(=O)N1N=C(c2ccc(Cl)cc2)CC1c1ccco1)c1ccco1 (configuration not stated) |  | inactive
Cc1ccc(C(=O)Nc2cc3c(cc2N2CCCCC2)n(C)c(=O)n3C)cc1 |  | inactive
CC(C)COP(=O)(OCC(C)C)C(Nc1ccccc1)c1ccc2c(c1)OCO2 (configuration not stated) |  | inconclusive: 28.2 µM [inhibitor, partial curve]
COn1c2c(c3c4no[n+]([O-])c4ccc31)CCCC2 |  | inactive
N#Cc1cccc(S(=O)(=O)NCc2nnc3ccccn23)c1 |  | inconclusive: 20 µM [inhibitor, single point]
COc1cc2[nH]c(=S)nc(NCC3CCCO3)c2cc1OC (configuration not stated) |  | inconclusive: 355 µM [inhibitor, partial curve]
O=C1C(NS(=O)(=O)c2cccs2)=C(N2CCN(c3cccc(Cl)c3)CC2)C(=O)c2ccccc21 |  | inconclusive: 63.1 µM [inhibitor, single point]

Gathered by group: the compounds so far with a furan ring, fused or not
Compound | activity, negative = inhibition | Potency
Cc1ccc(C(=O)OCc2nc3ccsc3c(=O)[nH]2)o1 |  | inactive
Cc1cc(S(=O)(=O)Nc2ccc(C(=O)NCC(c3ccco3)N(C)C)cc2)ccc1F (configuration not stated) |  | inactive
CC(=O)Nc1ccc(/C=N/NC(=O)c2cc(-c3ccco3)nc3ccccc23)cc1 |  | inconclusive: 100 µM [inhibitor, single point]
O=C(OCC(=O)N1N=C(c2ccc(Cl)cc2)CC1c1ccco1)c1ccco1 (configuration not stated) |  | inactive

(continued)

Compound | activity, negative = inhibition | Potency
COc1ccc(-c2nnc(-c3cc4c(ccc5ccccc54)oc3=O)o2)cc1 |  | inactive
COc1ccc(C(=O)NC2CCN(CC(=O)Nc3cccc(OC)c3)CC2)cc1 |  | inconclusive: 100 µM [inhibitor, single point]
Cc1ccccc1SCC(=O)Nc1cc(S(=O)(=O)N2CCOCC2)ccc1N1CCOCC1 |  | inconclusive: 22.4 µM [inhibitor, single point]
Nc1ccc2c3c(cccc13)C(=O)N(c1ccccc1)C2=O |  | inconclusive: 31.6 µM [activator, partial curve]
NC(=O)NC(CC(=O)NNC(=O)c1ccccn1)c1ccccc1Cl (configuration not stated) |  | inactive
CCOC(=O)c1c(-c2ccc(C)o2)csc1NC(=O)COC(=O)c1cccs1 |  | inactive
COc1cc(/C=C2\SC(=Nc3ccccc3)NC2=O)cc(Cl)c1O |  | inconclusive: 15.8 µM [activator, partial curve]
O=C(CSc1nc2ccsc2c(=O)n1CC1CCC(C(=O)O)CC1)c1ccc(Cl)cc1 (configuration not stated) |  | inconclusive: 141 µM [inhibitor, single point]
O=C(NCc1ccco1)/C(=C/c1ccccc1)NC(=O)c1ccco1 |  | inactive
COc1ccc(C2=CC(c3ccco3)n3ncnc3N2)cc1 (configuration not stated) | inconclusive: 44.1% [activator] | 
O=C(Nc1ccc2ccccc2c1)c1cn(-c2ccccc2)nc1-c1cccs1 |  | inactive
O=S(=O)(Cc1ccccc1)Nc1cccc(F)c1 |  | inconclusive: 20 µM [inhibitor, single point]
Cc1ccnc2c1ccc1cccnc12 |  | inactive
CCOC(=O)N1CCN(c2nc(=S)n(-c3ccccc3)c(C)c2C(C)=O)CC1 |  | inactive
Cc1cc(C)nc(SCc2ccc(C(=O)NNC(=O)Nc3cccc(Cl)c3)cc2)n1 |  | inactive
CCC(=O)c1ccc(OCC(=O)Nc2cc(S(=O)(=O)N3CCCCC3)ccc2N2CCN(CC)CC2)cc1 |  | inactive
Nc1nc(C(F)(F)F)cc(=O)[nH]1 |  | inactive
COc1ccc(OC)c(N2CC(O)(c3ccccc3)[N+]3=C2SCCC3)c1 (configuration not stated) |  | inconclusive: 39.8 µM [inhibitor, partial curve]
COc1ccc(NC(=O)CN(C)C(=O)/C=C/c2ccc(OCc3ccccc3)cc2)cc1 |  | inconclusive: 25.1 µM [inhibitor, single point]
COc1ccccc1N1CCN(C2CCCCC2NS(=O)(=O)c2ccccc2)CC1 (configuration not stated) |  | inconclusive: 112 µM [inhibitor, single point]
Cc1cc(C)c(O)c(-c2n[nH]c3c2C(c2cccc(O)c2)N(Cc2ccco2)C3=O)c1 (configuration not stated) |  | inconclusive: 126 µM [inhibitor, single point]
COC(=O)c1ccc(Oc2nc(SC)nc(N(C)C)n2)cc1 |  | inconclusive: 126 µM [inhibitor, single point]
NC(=O)C1CCN(C2=C(NS(=O)(=O)c3ccccc3)C(=O)c3ccccc3C2=O)CC1 |  | inactive
COc1cc2ncc(S(=O)(=O)c3ccccc3)c(N3CCCC(C)C3)c2cc1OC (configuration not stated) |  | inconclusive: 22.4 µM [inhibitor, single point]
